Experimental data reported in patent US7947679B2 (priority 2002, dated 2011).
Some results were stated once for a whole list of compounds, not compound by compound.

Experiments:
[1] = tested on: Puccinia recondita f. sp. tritici; details: in vivo
[2] = tested on: Erysiphe graminis f. sp. tritici; details: in vivo
Pyricularia oryzae = assay type: in vivo; details: 200 ppm, rice leaf segments, preventive, assessed four days after inoculation
[3] = tested on: Erysiphe graminis f. sp. hordei; details: in vivo

SMILES	control of disease [1]	control of disease [2]	control of disease (Pyricularia oryzae)	control of disease [3]
CC(C)Nc1c(-c2c(F)cc(F)cc2F)c(Cl)nc2ncccc12 [3 (1), [2-chloro-3-(2,4,6-trifluorophenyl)-[1,8]naphthyridin-4-yl]-isopropylamine]	greater than 60%	greater than 60%	greater than 60%	greater than 60%
CC(C)Nc1c(-c2c(F)cc(F)cc2F)c(Cl)nc2cccnc12 [3 (11), [2-chloro-3-(2,4,6-trifluorophenyl)-[1,5]naphthyridin-4-yl]-isopropylamine]	–	greater than 60%	–	–
CC(C)Nc1c(-c2c(F)cc(F)cc2F)c(Cl)nc2cnccc12 [3 (21), [2-chloro-3-(2,4,6-trifluorophenyl)-[1,7]naphthyridin-4-yl]-isopropylamine]	–	greater than 60%	greater than 60%	–
CC(C)Nc1c(-c2c(F)cc(F)cc2F)c(Cl)nc2ncc(Br)cc12 [3 (111), [6-bromo-2-chloro-3-(2,4,6-trifluorophenyl)-[1,8]naphthyridin-4-yl]-isopropylamine]	–	–	–	greater than 60%
CC(C)Nc1nc2cnccc2c(Cl)c1-c1c(F)cc(F)cc1F [3 (117), [4-chloro-3-(2,4,6-trifluoro-phenyl)-[1,7]naphthyridin-2-yl]-isopropylamine]	greater than 60%	–	–	–
Fc1cc(F)c(-c2c(Cl)nc3ncccc3c2N2CCOCC2)c(F)c1 [20 (1), 2-chloro-4-morpholin-4-yl-3-(2,4,6-trifluorophenyl)-[1,8]naphthyridine]	–	–	greater than 60%	greater than 60%
